Assay results from article PMC8096975.
These are yes or no findings as the source states them, for the method shown. Binding seen in cells or lysates may run through a third protein. Some results given as binding are weak or reduced against the parent protein; the word gives no strength. For some of these results: Tags and fused reporters may be left off the sequences shown. Values belong to the binder of their own block, whether it stands above or below them.

Assays:
GIPC2-AcGFP (human) = target: T1, GIPC2-AcGFP (human) (UniProt Q8TF65); experiment: FRET or BRET; FRET in PC12 cells co-transfected with GIPC2-AcGFP and mcherry fusions, 48 h after transfection; percentage of energy transfer efficiency
T1 sequence: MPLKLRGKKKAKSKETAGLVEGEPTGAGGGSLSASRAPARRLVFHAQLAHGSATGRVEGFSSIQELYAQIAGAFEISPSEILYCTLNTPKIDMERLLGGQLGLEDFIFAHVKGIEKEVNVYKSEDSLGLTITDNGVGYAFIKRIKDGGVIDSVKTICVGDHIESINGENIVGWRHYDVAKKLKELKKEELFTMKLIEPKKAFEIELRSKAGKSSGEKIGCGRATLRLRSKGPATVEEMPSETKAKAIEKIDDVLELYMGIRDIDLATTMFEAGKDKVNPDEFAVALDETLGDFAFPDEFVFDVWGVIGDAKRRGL

[1] = target: T2, GST fused to GIPC2 (human) (UniProt Q8TF65); experiment: pull-down; bacterially expressed GST fusions on GST-beads incubated with 293T lysates, washed, western blot for NONO; only the target purified
T2 sequence: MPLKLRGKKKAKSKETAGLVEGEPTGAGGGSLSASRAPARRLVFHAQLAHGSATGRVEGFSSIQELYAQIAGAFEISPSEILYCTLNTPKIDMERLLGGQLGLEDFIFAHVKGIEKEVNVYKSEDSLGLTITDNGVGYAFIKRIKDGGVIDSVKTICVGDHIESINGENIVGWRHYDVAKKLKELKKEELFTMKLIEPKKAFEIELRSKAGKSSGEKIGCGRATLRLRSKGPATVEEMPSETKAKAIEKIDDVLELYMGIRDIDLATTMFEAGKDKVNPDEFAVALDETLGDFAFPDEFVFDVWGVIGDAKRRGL

GIPC2-HA (human) = target: T3, GIPC2-HA (human) (UniProt Q8TF65); experiment: co-IP; whole-cell lysates of 293T cells co-transfected with GIPC2-HA and His-NONO; precipitation with Ni-NTA agarose and with anti-GIPC2, immunoblot
T3 sequence: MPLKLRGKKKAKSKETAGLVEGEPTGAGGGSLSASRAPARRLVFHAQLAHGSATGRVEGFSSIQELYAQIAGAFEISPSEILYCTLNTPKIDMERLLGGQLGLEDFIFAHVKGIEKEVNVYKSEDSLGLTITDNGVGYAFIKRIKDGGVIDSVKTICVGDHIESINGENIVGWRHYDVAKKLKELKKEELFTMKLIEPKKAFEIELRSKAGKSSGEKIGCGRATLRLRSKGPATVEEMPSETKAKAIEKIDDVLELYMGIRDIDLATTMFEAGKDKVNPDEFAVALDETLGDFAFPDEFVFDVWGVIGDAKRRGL

[2] = target: T4, GIPC2 (endogenous, hPheo1) (human (endogenous in hPheo1)) (UniProt Q8TF65); experiment: co-IP; whole-cell lysates of hPheo1 cells immunoprecipitated with anti-GIPC2 or IgG, immunoblot; endogenous proteins
T4 sequence: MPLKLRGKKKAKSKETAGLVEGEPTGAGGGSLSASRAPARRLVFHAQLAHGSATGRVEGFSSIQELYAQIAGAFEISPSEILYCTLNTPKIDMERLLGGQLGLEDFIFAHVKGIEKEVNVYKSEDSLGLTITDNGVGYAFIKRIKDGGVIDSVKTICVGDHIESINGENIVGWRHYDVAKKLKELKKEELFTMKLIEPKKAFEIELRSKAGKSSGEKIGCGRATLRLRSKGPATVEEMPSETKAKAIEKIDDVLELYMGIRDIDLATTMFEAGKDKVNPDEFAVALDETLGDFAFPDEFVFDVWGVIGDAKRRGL

- binding (GIPC2-AcGFP (human)): binds
B1: mcherry-NONO (protein, UniProt Q15233 1-471)
chain: MQSNKTFNLEKQNHTPRKHHQHHHQQQHHQQQQQQPPPPPIPANGQQASSQNEGLTIDLKNFRKPGEKTFTQRSRLFVGNLPPDITEEEMRKLFEKYGKAGEVFIHKDKGFGFIRLETRTLAEIAKVELDNMPLRGKQLRVRFACHSASLTVRNLPQYVSNELLEEAFSVFGQVERAVVIVDDRGRPSGKGIVEFSGKPAARKALDRCSEGSFLLTTFPRPVTVEPMDQLDDEEGLPEKLVIKNQQFHKEREQPPRFAQPGSFEYEYAMRWKALIEMEKQQQDQVDRNIKEAREKLEMEMEAARHEHQVMLMRQDLMRRQEELRRMEELHNQEVQKRKQLELRQEEERRRREEEMRRQQEEMMRRQQEGFKGTFPDAREQEIRMGQMAMGGAMGINNRGAMPPAPVPAGTPAPPGPATMMPDGTLGLTPPTTERFGQAATMEGIGAIGGTPPAFNRAAPGAEFAPNKRRRY

- binding [1]: binds
B2: NONO (endogenous, 293T) (protein, UniProt Q15233 1-471)
chain: MQSNKTFNLEKQNHTPRKHHQHHHQQQHHQQQQQQPPPPPIPANGQQASSQNEGLTIDLKNFRKPGEKTFTQRSRLFVGNLPPDITEEEMRKLFEKYGKAGEVFIHKDKGFGFIRLETRTLAEIAKVELDNMPLRGKQLRVRFACHSASLTVRNLPQYVSNELLEEAFSVFGQVERAVVIVDDRGRPSGKGIVEFSGKPAARKALDRCSEGSFLLTTFPRPVTVEPMDQLDDEEGLPEKLVIKNQQFHKEREQPPRFAQPGSFEYEYAMRWKALIEMEKQQQDQVDRNIKEAREKLEMEMEAARHEHQVMLMRQDLMRRQEELRRMEELHNQEVQKRKQLELRQEEERRRREEEMRRQQEEMMRRQQEGFKGTFPDAREQEIRMGQMAMGGAMGINNRGAMPPAPVPAGTPAPPGPATMMPDGTLGLTPPTTERFGQAATMEGIGAIGGTPPAFNRAAPGAEFAPNKRRRY

- binding (GIPC2-HA (human)): binds
B3: His-NONO (protein, UniProt Q15233 1-471)
chain: MQSNKTFNLEKQNHTPRKHHQHHHQQQHHQQQQQQPPPPPIPANGQQASSQNEGLTIDLKNFRKPGEKTFTQRSRLFVGNLPPDITEEEMRKLFEKYGKAGEVFIHKDKGFGFIRLETRTLAEIAKVELDNMPLRGKQLRVRFACHSASLTVRNLPQYVSNELLEEAFSVFGQVERAVVIVDDRGRPSGKGIVEFSGKPAARKALDRCSEGSFLLTTFPRPVTVEPMDQLDDEEGLPEKLVIKNQQFHKEREQPPRFAQPGSFEYEYAMRWKALIEMEKQQQDQVDRNIKEAREKLEMEMEAARHEHQVMLMRQDLMRRQEELRRMEELHNQEVQKRKQLELRQEEERRRREEEMRRQQEEMMRRQQEGFKGTFPDAREQEIRMGQMAMGGAMGINNRGAMPPAPVPAGTPAPPGPATMMPDGTLGLTPPTTERFGQAATMEGIGAIGGTPPAFNRAAPGAEFAPNKRRRY

- binding [2]: binds
B4: NONO (endogenous, hPheo1) (protein, UniProt Q15233 1-471)
chain: MQSNKTFNLEKQNHTPRKHHQHHHQQQHHQQQQQQPPPPPIPANGQQASSQNEGLTIDLKNFRKPGEKTFTQRSRLFVGNLPPDITEEEMRKLFEKYGKAGEVFIHKDKGFGFIRLETRTLAEIAKVELDNMPLRGKQLRVRFACHSASLTVRNLPQYVSNELLEEAFSVFGQVERAVVIVDDRGRPSGKGIVEFSGKPAARKALDRCSEGSFLLTTFPRPVTVEPMDQLDDEEGLPEKLVIKNQQFHKEREQPPRFAQPGSFEYEYAMRWKALIEMEKQQQDQVDRNIKEAREKLEMEMEAARHEHQVMLMRQDLMRRQEELRRMEELHNQEVQKRKQLELRQEEERRRREEEMRRQQEEMMRRQQEGFKGTFPDAREQEIRMGQMAMGGAMGINNRGAMPPAPVPAGTPAPPGPATMMPDGTLGLTPPTTERFGQAATMEGIGAIGGTPPAFNRAAPGAEFAPNKRRRY
